Laboratory results: PubChem BioAssay AID1259424 (University of Nebraska Medical Center, 2018)

- Assay: 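Find knockdowns that reproduce the expression shifts seen after KSR1 loss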 (primary screen)
- System: human HCT116 colon cancer cells
- Reagent: siRNA pool against human genes, 50 nM
- Measured: 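Log2 levels of six mRNAs (branched-DNA multiplex), adjusted by two reference genes and the non-targeting median, then scored against the average KSR1 knockdown pattern as Pearson r and euclidean distance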
- Direction: mean correlation with KSR1 profile: higher = expression change more like KSR1 knockdown; mean distance from KSR1 profile: higher = expression change less like KSR1 knockdown
The deposit covers about 14,000 reagents; shown is an unselected part. 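Higher correlation or smaller distance means closer resemblance to KSR1 loss; control wells, including KSR1 knockdowns, recur on many plates.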 Not all columns of the deposit are shown. Reagent sequences are not shown. Not stated in the record: the time to read-out.

SYT7 scored mean correlation with KSR1 profile -0.0466; mean distance from KSR1 profile 1.73.
OTUB1 gave mean correlation with KSR1 profile 0.367; mean distance from KSR1 profile 1.45.
Silencing of KRT20 resulted in: mean correlation with KSR1 profile -0.118; mean distance from KSR1 profile 1.92.
ADSS2 scored mean correlation with KSR1 profile -0.317; mean distance from KSR1 profile 2.63.
Silencing of POLG gave: mean correlation with KSR1 profile -0.15; mean distance from KSR1 profile 1.75.
Knock-down of FICD came out at: mean correlation with KSR1 profile -0.534; mean distance from KSR1 profile 1.92.
With knock-down of TBX21 the results were mean correlation with KSR1 profile 0.479; mean distance from KSR1 profile 1.69.
Knock-down of YIPF4 came out at: mean correlation with KSR1 profile 0.808; mean distance from KSR1 profile 1.34.
For CLEC11A, the entry reads mean correlation with KSR1 profile 0.858; mean distance from KSR1 profile 1.1.
Silencing of PTPN7 came out at: mean correlation with KSR1 profile -0.378; mean distance from KSR1 profile 2.5.
After knock-down of NMI, the record shows mean correlation with KSR1 profile -0.174; mean distance from KSR1 profile 2.41.
For SLC15A1 the deposit lists mean correlation with KSR1 profile -0.282; mean distance from KSR1 profile 2.97.
After knock-down of RASSF5, the screen gave mean correlation with KSR1 profile 0.567; mean distance from KSR1 profile 0.971.
Knock-down of TESMIN gave: mean correlation with KSR1 profile 0.596; mean distance from KSR1 profile 1.12.
PER3 scored mean correlation with KSR1 profile 0.399; mean distance from KSR1 profile 2.52.
Depletion of SACK1E gave: mean correlation with KSR1 profile -0.307; mean distance from KSR1 profile 2.1.
For MRPL48, the entry reads mean correlation with KSR1 profile -0.539; mean distance from KSR1 profile 1.93.
BAG3 scored mean correlation with KSR1 profile 0.371; mean distance from KSR1 profile 1.94.
For EEF1B2, the values are mean correlation with KSR1 profile 0.469; mean distance from KSR1 profile 1.82.

Reformatted: 3 of the entries above.
gene symbol | mean correlation with KSR1 profile | mean distance from KSR1 profile
OTUB1 | 0.367 | 1.45
KRT20 | -0.118 | 1.92
ADSS2 | -0.317 | 2.63
